# Reference: PubChem BioAssay AID1347423 (Functional Genomics Laboratory (NCATS/FGL), 2020)
# About 210 (0.4%) of roughly 52,000 sequences were called active.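 Rule for the calls: active = gene whose silencing raises cell survival under the drug, median off-target-corrected z-score across its silencing RNAs 2 or more; inactive = the rest.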 This is one part of the list.
# Assay: Resistance to Poly (ADP-Ribose) Polymerase inhibitor: Gene Identification via Genome-wide siRNA Screen
# Details: mouse BRCA2 R2336H ES cells, olaparib, CellTiter-Glo viability; active compounds read high
# How it was run: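 Genome-wide siRNA screen (3 siRNAs/gene, 20 nM) in mouse ES cells carrying hypomorphic BRCA2 R2336H; olaparib 500 nM added 48 h post-transfection, CellTiter-Glo viability 72 h later. Normalized to plate-median negative control; MAD z-scores, gene median, seed-adjusted.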
row,Sequence,z-score
1,CCUAUGCGAUUAUCGCUGCTT against Wnt7a,inactive: 0.899
2,CCUUCUAAAUGACCUGUUUTT against 1810037C20Rik,inactive: -1.33
3,GCGAAUCCAAGCUGGAUAGTT against AA408868,inactive: -1.9
4,GGUAGAAAUCAUUCUCUUUTT against Olfr1037,inactive: 0.898
5,GGUUCCCAAAGUAGAAGCATT against Dkkl1,inactive: 0.582
6,GGAAUAAUUUCUGGAUUCUTT against Maoa,inactive: 0.165
7,GCUAAAUCAGCGUAUGAUGTT against BC026374,inactive: -0.287
8,GGGCAAAUGACUUGGUGAATT against Maged2,inactive: -0.113
9,CCUUUGUAGGAACAAUUUATT against Phlda1,inactive: 0.997
10,GGAGAAAUUCAUGACCAUGTT against 2210413P12Rik,inactive: 0.19
11,GGAAACAACUUUUUGCUUUTT against Gig1,inactive: 0.785
12,CCACCAUGACAAAACGUGUTT against Olfr1459,inactive: 1.56
13,GACAACAAGGUGGCUUCGGTT against Tlx2,inactive: -0.424
14,GGGCACACAUAUGACCGUUTT against Rrad,inactive: -1.23
15,CCUGAAACAUUCAGUGUCUTT against 9430083G14Rik,inactive: 1.55
16,GCCAAUACGACUGAUGAGCTT against Cst10,inactive: -0.26
17,GUUUCUCCAUGGAGUCAUUTT against Psmb5,inactive: -2.15
18,GGGAAGAACUGUGAUUAUUTT against Hspd1,inactive: -2
19,GAUAUAGUCACAGUGUUUUTT against V1ri5,inactive: 0.932
20,CCAGUGCCUCAAGCUUUCATT against 4930471M23Rik,inactive: 0.123
21,GGAGAAGGAUGGAGUGUUUTT against Brms1l,inactive: 0.182
22,GUGUUUCUUGUUGUGUACATT against Olfr1013,inactive: -0.705
23,GGCCAAAAGUAUGAAAGUATT against 9030418M05Rik,inactive: -0.83
24,GGCUUCUCCAACACUAAGATT against Smtn,inactive: 0.17
25,GGGCAUGGAGGAGUACAUUTT against Cml1,inactive: 0.471
26,GGCACUGAUAAGAAGUACCTT against Dnahc1,inactive: 0.812

# Reformatted tab-delimited: part of the list above
row	Sequence	z-score
3	GCGAAUCCAAGCUGGAUAGTT against AA408868	inactive: -1.9
9	CCUUUGUAGGAACAAUUUATT against Phlda1	inactive: 0.997
16	GCCAAUACGACUGAUGAGCTT against Cst10	inactive: -0.26
19	GAUAUAGUCACAGUGUUUUTT against V1ri5	inactive: 0.932
20	CCAGUGCCUCAAGCUUUCATT against 4930471M23Rik	inactive: 0.123
26	GGCACUGAUAAGAAGUACCTT against Dnahc1	inactive: 0.812

# Retrieved one by one from the list above:
row,Sequence,z-score
6,GGAAUAAUUUCUGGAUUCUTT against Maoa,inactive: 0.165
16,GCCAAUACGACUGAUGAGCTT against Cst10,inactive: -0.26
1,CCUAUGCGAUUAUCGCUGCTT against Wnt7a,inactive: 0.899

# The listing continues:

row,Sequence,z-score
1,GUAUGACCAGAAGAAAAAGTT against 1700108M19Rik,inactive: -2.92
2,GGACAUGAAGACCAAGAUGTT against Cpox,inactive: 1.05
3,GCCGCUGUCCUACAAGUUATT against Lmo1,inactive: 2.43
4,GGUCAUUGUCAGUACCGGATT against 4930444A02Rik,inactive: 0.561
5,GUUGCUAAUAUCCUGUCUGTT against Olfr115,inactive: -0.655
6,CCGCCAACACCUUUGUUUUTT against Cyp1b1,inactive: 0.217
7,CGGUACAAACAGUGCAGAUTT against 1300018P11Rik,inactive: -2.59
8,GCACCCAACCCAAAAACACTT against 5730596B20Rik,inactive: 0.175
9,GGCAAAGAUGAUGGAAAAATT against Srp68,inactive: -0.581
10,CCAUUAAUGCAGACACUACTT against Amy2,inactive: 1.29
11,GGAGACUUGCUAAAUGCCCTT against Fkbp7,inactive: 0.135
12,GGCUCGGUACUUAAAGGAUTT against 3300001M20Rik,inactive: -1.31
13,GGCAUUACAGUGUUUCUGCTT against Tgfbr1,inactive: 0.956
14,GGAAGUGAACAAAAUGACUTT against Afp,inactive: 2
15,GGCCUUUGGGACAUGUGUGTT against Olfr552,inactive: 0.095
16,GGUAAGCUAGGUUGCCCACTT against Gabarapl1,inactive: 0.151
17,GGAGAGUGGGAUGCCUAUUTT against Rsl1,inactive: -3.09
18,GGCAGCAUUUAUGGAGUACTT against 2810024B22Rik,inactive: -1.37
19,GCUGCUUAAGUACAUCAGATT against Grm4,inactive: -1.05
20,CGGGACACUUGAAUUGGCUTT against Frmd4a,inactive: -0.555
21,GGCAGUACCAGGUCCAGAATT against Angpt2,inactive: -0.978
22,GAACUUUUUUUCUGUGAACTT against Olfr174,inactive: -1.18
23,GGUCCACUGGAAAUGCUUUTT against F2rl3,inactive: 0.955
24,GGACUUUUGGCACUCUUAUTT against Snx10,inactive: 1.04
25,GGAUGAUUCAGAUGAAGAUTT against 1500031H04Rik,inactive: -2.16
26,GGAUCAGAUGACACAGACUTT against Stk19,inactive: -0.687

row,Sequence,z-score
1,AUUAGAAGUAAACACGGGATT against Krtap16-9,inactive: -0.0252
2,GGCAAAACCACAAUGAACUTT against D15Ertd785e,inactive: -1.64
3,GCAAUGAGCCAUUAAAGUGTT against 2810405K02Rik,inactive: -0.251
4,GGAAAGCUCUCAAUACCUGTT against Olfr633,inactive: 0.784
5,GCCUUUCAUGCUCCAACAUTT against Olfr995,inactive: -0.408
6,GGUUUGGAUUGGGUAAAGGTT against Apex1,inactive: 0.473
7,GCCACAUCCUAUGUGAUGATT against Olfr1349,inactive: 1.23
8,GGCGAGAAGUGUAACAUUCTT against Fjx1,inactive: -0.247
9,CCGUGAUGGACAUCUAUUCTT against 6530404F10Rik,inactive: -2.2
10,GCGAUUUUACGGAUCCGGUTT against Olfr1420,inactive: -0.612
11,GCUAAAAACGACCACAACCTT against Mvd,inactive: 1.35
12,CCACCAUGACUGCAAAUGUTT against Olfr1469,inactive: -1.09
13,GCAUCAUCCAUACGUCUUATT against Ovgp1,inactive: -0.0802
14,GUACCUCUUUUUGUAAUGUTT against Olfr232,inactive: -0.863
15,CGGGCCUAAACCUCUUAAUTT against Rest,inactive: -0.882
16,CCAAAACCUGAACUCACUATT against Fzd5,inactive: -0.921
17,CCUUAUCACAUGUAUCCUCTT against Slc9a9,inactive: -0.123
18,GGGACUGGCAGAUCUUAUCTT against Gtpbp3,inactive: 0.463
19,GGAGCGAUUUGCUGGUGUGTT against Rps16,inactive: -3.43
20,GCCCACCUAAACCAACAGUTT against Dap,inactive: -0.744
21,GGACAACCGAAGUUUUAAUTT against E130308A19Rik,inactive: 1.78
22,CCAGCUGGAAUUCAUGGUCTT against Olfr1307,inactive: -0.32
23,CCAUUGUUUGACUCAAAACTT against Gje1,inactive: 0.0932
24,GGAAGUGUACUUCUACACATT against Gabrq,inactive: -1.79
25,GGAGAAGGGAACCAAUAAGTT against Vgll1,inactive: -0.434
26,UGCAUGGACUUACGAAAGATT against Tas2r115,inactive: 0.564

row,Sequence,z-score
1,GGUGAGCAAAGAGACAUAUTT against Hivep3,inactive: 0.0613
2,GGACAACAUUCAUUUCUGUTT against MGC29978,inactive: 0.44
3,GGAGACUACCAGAAGGCCUTT against Stip1,inactive: 0.179
4,GGCCUAUUCAAAAAUCAGCTT against E230011A21Rik,inactive: -0.0682
5,GCAAUGUGACCUUUCUUCUTT against Tm7sf3,inactive: 0.626
6,GGAGAGAUGUAGAAUAUGGTT against 9530046H09Rik,inactive: 2.3
7,GGGUUGUUCCAAAUGCUAGTT against Skp1a,inactive: -0.693
8,CCACUUACAUGUCAGAUUATT against Slc30a6,inactive: 1.24
9,GCGCGUUCCUGAUGUUUACTT against AI849156,inactive: -1.08
10,GGAAGGUGAGAGCAUUAUGTT against Lrba,inactive: -1.05
11,GUGGUGGUGGAAGACAUAATT against 2810435D12Rik,inactive: -0.552
12,CCUGAAAAAAUUUAUCGCCTT against Rnf3,inactive: -0.169
13,CCUUCACAAGGACAAGUUUTT against C330027G06Rik,inactive: -1.05
14,GGACCAUGUAUUUUUCUCUTT against B3gnt5,inactive: 1.91
15,CCGUCUAUUAGUGAAGAUGTT against Pex1,inactive: 0.785
16,GCAGCUCAACUAUUCUUGATT against D1Ertd622e,inactive: -0.993
17,GGAAGAAAGCCAUUUGCUUTT against 4632412I24Rik,inactive: 0.766
18,GCCCAAAUGAGACUACUUUTT against Es22,inactive: -0.0913
19,UGUAAUCACCCACUUUUUCTT against Olfr386,inactive: -0.0492
20,GGAUAAGGUAAUCUCGGUATT against Olfr710,inactive: -0.267
21,GGAAAUGGUGCAGAAAACCTT against F830029L24Rik,inactive: -0.107
22,GCAACAAAAGGCCUAAUCATT against 4930550C14Rik,inactive: 2.11
23,GCCAAGCACUGGACUAUGATT against Cdk5r2,inactive: 0.752
24,GGAAGUUGAAAAUGAAAACTT against Myom2,inactive: 0.856
25,GGAAGCAUGUGAGAGAAAATT against 4930565N07Rik,inactive: 1.12
